The target of this experiment is T1, fragment (93-161 aa) of yeast (S. pombe) U2AF65 (U2AF59) (S. pombe) (UniProt P36629).
T1 sequence: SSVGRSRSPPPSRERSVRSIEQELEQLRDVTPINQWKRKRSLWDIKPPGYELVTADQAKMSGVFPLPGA
In words: co-expression and co-purification; untagged U2AF35 and His-StrepII-tagged U2AF65 (93-161 aa) co-expressed in E. coli BL21(DE3) from pETDuet-1; Ni-NTA column and StrepTrap column by the tag on the U2AF65 fragment; tags removed by TEV; size exclusion (Superdex S75) in 20 mM HEPES, pH 7.0, 100 mM NaCl.

Positions count from the first letter of the chain named. Names and notes keep the numbering of the source. Results are given in words; binding and its absence hold for the method and conditions named. Some results given as binding are weak or reduced against the parent protein; the word gives no strength.

Drawing on publication PMC8208822, this text covers binding for 4 molecules.

B1: full-length yeast (S. pombe) U2AF35 (U2AF23) (protein, UniProt Q09176 1-216)
chain: MASHLASIYGTEQDKVNCSFYYKIGACRHGERCSRKHVKPNFSQTILCPNMYKNPIHEPNGKKFTQRELAEQFDAFYEDMFCEFSKYGEVEQLVVCDNVGDHLVGNVYVRFKYEESAQNAIDDLNSRWYSQRPVYAELSPVTDFREACCRQHETSECQRGGLCNFMHAKKPSPQLLRDLVLAQRKYLALNAAEEMKKEPNSDSTNRWVSVTAERKN
As for B1, the binding entry is on record as “binds”.

B2: yeast (S. pombe) U2AF35 (U2AF23) R35S (protein, UniProt Q09176 1-216)
chain: B1 chain with R35S
In the case of B2, the binding result is given as “binds”.

B3: yeast (S. pombe) U2AF35 (U2AF23) R35K (protein, UniProt Q09176 1-216)
chain: B1 chain with R35K
For B3, the binding result is on record as “binds”.

B4: yeast (S. pombe) U2AF35 (U2AF23) S34Y (protein, UniProt Q09176 1-216)
chain: B1 chain with S34Y
As to B4, the binding entry is on record as “binds”.
